Assay results: patent US5911990A, “T-cell receptor peptides and methods for preventing the progression to AIDS in an animal model” (Arizona Board of Regents on Behalf of the University of …, priority 1996, dated 1999)
Not every detail of the peptide structures is certain; ends, links or a residue may be inferred. Ends that are not written are not given here.

Columns and labels:
LP-BM5 MuLV retrovirus = assay: Murine MAIDS model: retrovirus-induced immune dysfunction and cytokine dysregulation, prophylactic and therapeutic; format: in vivo, mice
LP-BM5-infected mice [1] = details: cited from earlier work
LP-BM5-infected mice [2] = assay: Murine AIDS symptoms: spleen size, splenomegaly, lymphadenopathy; format: in vivo
LP-BM5-infected mice [3] = assay: Tissue vitamin E and lipid peroxidation during murine retrovirus infection; format: in vivo; details: unpublished observations
[4] = 100-500 μg/mouse and 4-weeks postinfection
[5] = about 200 μg/mouse and 4-weeks postinfection

Row | Sequence | preventing retrovirus-induced immune deficiency (LP-BM5 MuLV retrovirus; mouse, in vivo) | cardiac free radical products (lipid fluorescence and diene conjugates) (LP-BM5-infected mice [1]; [4]) | hepatic free radical products (lipid fluorescence and diene conjugates) (LP-BM5-infected mice [1]; [4]) | cardiac vitamin E levels (LP-BM5-infected mice [1]; [5]) | hepatic vitamin E levels (LP-BM5-infected mice [1]; [5]) | spleen size (LP-BM5-infected mice [2]; injection after infection) | lymphadenopathy (LP-BM5-infected mice [2]; murine AIDS (MAIDS) model) | splenomegaly (LP-BM5-infected mice [2]; murine AIDS (MAIDS) model) | effective dose (LP-BM5 MuLV retrovirus; intraperitoneally in saline, prophylactic (days -7, -3) and therapeutic (days 10, 14) model) [μg/mouse] | dose that produces optimal slowing of development of immune dysfunction (LP-BM5 MuLV retrovirus; murine retrovirus infection) [μg/mouse] | loss of tissue vitamin E (LP-BM5-infected mice [3])
1 | TGTSSDVGGYNYVSWY [MCG3, Thr Gly Thr Ser Ser Asp Val Gly Gly Tyr Asn Tyr Val Ser Trp Tyr, reference compound] | has no effect | – | – | – | – | – | – | – | – | – | –
2 | CKPISGHNSLFWYRQT [TCR Vβ CDR1 peptide, Cys Lys Pro Ile Ser Gly His Asn Ser Leu Phe Trp Tyr Arg Gln Thr] | – | significantly (P<0.05) reduces | significantly (P<0.05) reduces | significantly (P<0.05) maintains | significantly (P<0.05) maintains | did not significantly reduce | did not significantly prevent | did not significantly prevent | 200 | 200 | largely prevented
